Reference: patent US20090075902A1, “INHIBITING THE SIGNS OF AGING BY INHIBITING NF-KAPPA B ACTIVATION” (priority 2007, published 2009)

System: mouse skin
Assay: PTD transduction through skin (FITC-labeled PTDs, confocal microscopy)
Format: in vivo
Settings: FITC-labeled PTD 5 mM in standard base cream, hairless (nude) mice, 3 hr

| Substance | Penetration of mouse skin |
| --- | --- |
| ARFLEHGSDKAT (SEQ ID NO:6) [Con-P, fluorescently labeled protein transduction domain] | penetrate mouse skin |
| Arg-Arg-Arg-Arg-Arg-Arg (SEQ ID NO:4) [6-R] | penetrate mouse skin |
| His-His-His-His-His-His (SEQ ID NO: 3) (HHHHHH; fluorescent label) [6-His, fluorescently labeled protein transduction domain] | penetrate mouse skin |
| KKKKKKKK (SEQ ID NO:5) [8K, fluorescently labeled protein transduction domain] | penetrate mouse skin |

Where no end group is shown, it is not given here.
